Assay [1] has as its target CD36 (mouse (endogenous in BMDM)) (UniProt Q08857). Briefly: co-IP; post-nuclear lysates of macrophages, resting or treated with oxLDL (30 ug/mL) or PAF (10^-7 mol/L) for 20 min; lysed on ice in HEPES buffer with 1 mmol/L CaCl2, 1 mmol/L MgCl2, 1% Triton X-100; precipitated overnight with rabbit anti-PAFR (protein A-Sepharose) or mouse IgA anti-CD36 (protein G-Sepharose); immunoblot for PAFR, CD36 or flotillin-1.

Sequences of proteins named here, by UniProt entry; tags and fusion partners are left off.
UniProt Q08857: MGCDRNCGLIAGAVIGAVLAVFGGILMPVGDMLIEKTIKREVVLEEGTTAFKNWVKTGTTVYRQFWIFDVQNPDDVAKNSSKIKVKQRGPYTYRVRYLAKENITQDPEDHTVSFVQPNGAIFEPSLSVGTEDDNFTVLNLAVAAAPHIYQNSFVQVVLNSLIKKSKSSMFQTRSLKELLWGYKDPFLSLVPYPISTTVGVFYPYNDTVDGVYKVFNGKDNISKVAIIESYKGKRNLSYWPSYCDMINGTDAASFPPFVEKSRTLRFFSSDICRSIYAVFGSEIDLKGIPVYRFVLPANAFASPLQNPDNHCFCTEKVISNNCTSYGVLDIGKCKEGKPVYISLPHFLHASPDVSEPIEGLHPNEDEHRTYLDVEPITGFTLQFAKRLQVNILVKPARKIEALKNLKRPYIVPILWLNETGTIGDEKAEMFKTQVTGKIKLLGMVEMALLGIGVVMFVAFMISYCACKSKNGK
UniProt Q62035: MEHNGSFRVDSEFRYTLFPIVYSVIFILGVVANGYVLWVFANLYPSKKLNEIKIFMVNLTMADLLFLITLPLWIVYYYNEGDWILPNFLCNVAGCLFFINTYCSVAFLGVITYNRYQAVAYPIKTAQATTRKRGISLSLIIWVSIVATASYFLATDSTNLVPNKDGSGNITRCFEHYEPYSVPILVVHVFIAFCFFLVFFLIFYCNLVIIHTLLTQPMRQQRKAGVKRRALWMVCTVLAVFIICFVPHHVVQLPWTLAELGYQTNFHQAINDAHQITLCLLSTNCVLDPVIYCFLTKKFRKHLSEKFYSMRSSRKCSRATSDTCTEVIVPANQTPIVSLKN

In assay [2] the target is receptor for platelet-activating factor (PAFR) (mouse (endogenous in BMDM)) (UniProt Q62035). Described as above.

Results are given in words; binding and its absence hold for the method and conditions named. In cells and extracts the contact can be indirect. Some entries that bind do so weakly or less than the wild type.

For the molecule “receptor for platelet-activating factor (PAFR) (from UniProt Q62035 1-341)”, in assay [1], the binding result was “binds”.

B1: flotillin-1 (protein, UniProt O08917 1-428)
chain: MFFTCGPNEAMVVSGFCRSPPVMVAGGRVFVLPCIQQIQRISLNTLTLNVKSEKVYTRHGVPISVTGIAQVKIQGQNKEMLAAACQMFLGKTEAEIAHIALETLEGHQRAIMAHMTVEEIYKDRQKFSEQVFKVASSDLVNMGISVVSYTLKDIHDDQDYLHSLGKARTAQVQKDARIGEAEAKRDAGIREAKAKQEKVSAQCLSEIEMAKAQRDYELKKATYDIEVNTRRAQADLAYQLQVAKTKQQIEEQRVQVQVVERAQQVAVQEQEIARREKELEARVRKPAEAERYRLERLAEAEKAQLIMQAEAEAESVRMRGEAEAFAIGARARAEAEQMAKKAEAFQMYQEAAQLDMLLEKLPQVAEEISGPLTSANKITLVSSGSGTMGAAKVTGEVLDILSRLPESVERLTGVSISQVNHNKPLRTA
In the case of B1, the binding entry in assay [1] and in assay [2] was “binds” each time.

For the origin of these results see PMC3793910.
